Experimental data taken from patent US9556229B2, “Modification of peptides using a bis(thioether)arylbridge approach” (priority 2012, dated 2017).
Like-named read-outs stand apart in the source and are kept apart here. At least one peptide structure holds a part that was inferred or is arguable (an end, a ring closure or a residue).

How the values were obtained:
SARS-CoV (strain Urbani) [1] = type: cell-based, SARS coronavirus
SARS-CoV (strain Urbani) [2] = type: cell-based, SARS coronavirus; remark: listed apart in the source

## CC[C@H](C)[C@H](N)C(=O)N[C@H]1CSCc2ccccc2CSC[C@@H](C(N)=O)NC(=O)[C@H]([C@@H](C)CC)NC(=O)[C@H]([C@@H](C)CC)NC(=O)[C@H](CCCNC(=N)N)NC(=O)[C@H]([C@@H](C)CC)NC(=O)[C@@H]2CCCN2C(=O)[C@H]2CCCN2C(=O)[C@H]([C@@H](C)CC)NC(=O)[C@H]([C@@H](C)CC)NC(=O)[C@H]([C@@H](C)CC)NC(=O)[C@H](CCCNC(=N)N)NC1=O [DpV13 ST]
SARS-CoV (strain Urbani) [1]
  EC50: 5.6 µM
SARS-CoV (strain Urbani) [2]
  EC50: 1.8 µM
